Measurements reported in PubChem BioAssay AID1508588 (Peter MacCallum Cancer Centre, 2020).
Aim: 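Genome-wide search for knock-downs that heighten vemurafenib action in melanoma cells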 (primary screen). Cell system: human WM266.4 melanoma cells (BRAF V600 mutant). Knock-down reagent: siRNA pool against human genes, 40 nM. Timing: 96 h from transfection to read-out. Challenge: vemurafenib 300 nM (about IC25), added 48 h after transfection, for 48 h; comparison arm got DMSO vehicle only. Read-out: 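Ratios to non-targeting siRNA for cell gain, counted as DAPI nuclei after minus before drug and averaged over two replicates, and for absorbance-read medium lactate per cell; both binned into fold-change classes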. Scale: cell gain with vemurafenib: higher = more cell gain than with non-targeting siRNA; lactate per cell with vemurafenib: higher = more lactate made per cell. Call rule: 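Enhancement is called by pairing each knock-down's vehicle-arm and drug-arm fold-change classes for viability or glycolysis; which class combinations qualify is not given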. Meaning of the calls: active = enhances vemurafenib effect; inactive = no enhancement seen.
The deposit covers about 18,000 reagents; below is an unselected part. 790 of them (4.4%) count as active. 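Calls rest on a combination of fold-change classes in drug and vehicle arms, not all shown here.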

gene symbol	cell gain with vemurafenib	lactate per cell with vemurafenib	activity call
CCM2	0.38	0.66	inactive
NR1H4	0.79	0.99	inactive
OTUB1	0.27	0.92	inactive
CCND3	0.57	1.82	inactive
SHOX2	0.64	0.59	inactive
DHRSX	0.32	0.8	inactive
GRAMD4	0.36	1.98	inactive
PRRG3	0	0.53	inactive
PRB3	0.48	1.16	inactive
RHOBTB1	0.36	1.16	inactive
CXCR5	1.11	0.58	inactive
CD44	0.34	1.68	inactive
ICOSLG	0.75	0.75	inactive
ZACN	0.61	0.88	inactive
CTXN1	0.61	0.49	inactive
ITM2B	0.85	1.02	inactive
PLEKHF1	0.46	0.79	inactive
KIAA1191	1.32	0.61	inactive
CNP	0.48	0.78	inactive
GAL3ST3	0.56	1.27	inactive
COPS9	0.95	0.82	inactive
KIF14	0.07	1.84	inactive
CALCRL	0.69	0.48	inactive
GAMT	1.4	0.55	inactive
POC5	0.23	2.57	inactive
LNP1	0.66	0.75	inactive
TIMP3	0.29	0.72	inactive
KDM3B	0.2	1.44	inactive
LACRT	0.81	0.99	inactive
SAMD8	0.7	0.58	inactive
ZNF524	0.65	1.11	inactive
H2AC1	0.82	0.86	inactive
HGD	0.53	1.34	inactive
TUB	0.74	1.06	inactive
MGAM	1.08	0.99	inactive
MED31	0.53	1.56	inactive
LEMD3	1.04	0.61	inactive
ZSCAN18	0.62	1.11	inactive
SERPINA7	0.66	2.34	inactive
GINS3	0.65	0.82	inactive
RABL3	0.65	0.88	inactive
GNA13	1.07	0.55	inactive
PPP1R15A	1.26	0.48	inactive
SUPT7L	0.99	0.7	inactive
PBX3	0.82	1.01	inactive

The list goes on, starting with the last 2 of the part before.
gene symbol	cell gain with vemurafenib	lactate per cell with vemurafenib	activity call
SUPT7L	0.99	0.7	inactive
PBX3	0.82	1.01	inactive
PLA2G12B	0.35	0.81	inactive
KRTAP11-1	0.56	0.66	inactive
ZNF485	0.85	0.82	inactive
MAGEC3	0.12	1.3	inactive
DCUN1D4	0.72	1.03	inactive
MCUB	0.77	0.68	inactive
RPL34	-0.09	1.44	inactive
URB2	0.6	0.97	inactive
ARID5B	1.15	0.59	inactive
EML1	0.94	1.02	inactive
EEFSEC	0.77	0.81	inactive
CYC1	0.68	1.68	inactive
CD52	0.32	1.94	inactive
GTSF1L	0.67	0.46	inactive
GJA3	0.44	0.67	active
CBFA2T2	1.28	0.6	inactive
PPP4R4	0.17	1.36	inactive
KLHDC9	0.62	0.7	inactive
HCN3	1.16	0.55	inactive
YTHDC2	-0.08	0.18	active
COX7A2	0.5	0.84	inactive
OR6N1	0	2.11	inactive
DRC10	0.16	1.49	inactive
TMEM225	1.21	0.57	inactive
SLC16A13	0.62	0.6	inactive
PLXNC1	0.29	1.77	inactive
OR51E2	0.88	0.6	inactive
WDHD1	0.12	0.83	inactive
CSNK1A1	0.32	1.9	inactive
ZNF543	0.52	0.32	inactive
SCARB2	0.61	1.42	inactive
KIRREL1	0.14	1.54	inactive
KLK11	0.32	0.71	inactive
TMEM60	0.14	2.3	inactive
VN1R4	0.81	0.75	inactive
LGALS12	0.89	0.62	inactive
CCL24	0.12	1.9	inactive
NOTUM	0.87	0.66	inactive
MCM7	0.54	0.82	inactive
